Experimental data from article PMC4786424.
These are yes or no findings as the source states them, for the method shown. In cells and extracts the contact can be indirect. Some results given as binding are weak or reduced against the parent protein; the word gives no strength. Where a sequence is shown, tags or fusion partners need not be part of it. Each block holds one molecule with its values, some of them ahead of it.

Chains of the proteins cited; added tags and fusions are not shown.
UniProt Q8TCW9: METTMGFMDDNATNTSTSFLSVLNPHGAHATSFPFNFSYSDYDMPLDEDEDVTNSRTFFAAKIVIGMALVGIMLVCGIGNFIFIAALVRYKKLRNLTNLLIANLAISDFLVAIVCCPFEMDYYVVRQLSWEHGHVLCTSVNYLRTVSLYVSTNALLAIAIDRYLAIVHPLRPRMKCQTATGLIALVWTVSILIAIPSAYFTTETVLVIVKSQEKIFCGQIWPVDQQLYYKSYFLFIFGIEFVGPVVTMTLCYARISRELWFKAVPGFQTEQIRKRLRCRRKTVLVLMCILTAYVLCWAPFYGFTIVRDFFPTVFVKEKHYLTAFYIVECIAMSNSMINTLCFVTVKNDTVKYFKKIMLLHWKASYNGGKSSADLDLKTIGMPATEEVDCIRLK
UniProt Q8NFJ6: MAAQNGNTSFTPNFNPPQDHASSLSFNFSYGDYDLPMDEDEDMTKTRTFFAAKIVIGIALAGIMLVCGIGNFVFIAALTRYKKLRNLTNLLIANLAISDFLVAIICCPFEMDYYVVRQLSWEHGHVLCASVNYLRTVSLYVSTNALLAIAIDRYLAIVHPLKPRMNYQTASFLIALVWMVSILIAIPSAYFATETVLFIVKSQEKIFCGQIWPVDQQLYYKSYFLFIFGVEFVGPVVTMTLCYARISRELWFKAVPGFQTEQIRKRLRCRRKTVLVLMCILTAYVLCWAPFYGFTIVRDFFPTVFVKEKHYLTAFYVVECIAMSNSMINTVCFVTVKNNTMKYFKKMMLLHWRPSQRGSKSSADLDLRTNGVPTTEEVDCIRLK

Experiments:
[1] = target: T1, MRAP2-3Flag (Melanocortin Receptor Accessory Protein 2 with 3Flag tag) (human) (UniProt Q96G30); assay: co-IP; cells co-transfected with 2HA-receptor and MRAP2-3Flag; lysed in 0.1% n-dodecyl-β-maltoside in PBS with protease inhibitors; IP with mouse anti-HA or mouse anti-Flag M2 overnight at 4°C, protein-G Dynabeads; western blot with rabbit anti-HA or anti-Flag; control: beads only
T1 sequence (chain, detected as a non-glycosylated and a glycosylated form (PNGase F sensitive)): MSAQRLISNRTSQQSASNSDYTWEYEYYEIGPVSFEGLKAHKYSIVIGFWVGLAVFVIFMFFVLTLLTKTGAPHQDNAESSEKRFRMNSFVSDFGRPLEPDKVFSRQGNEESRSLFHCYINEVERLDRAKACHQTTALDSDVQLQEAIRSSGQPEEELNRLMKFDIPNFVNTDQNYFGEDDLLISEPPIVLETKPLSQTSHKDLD

[2] = target: T2, MRAP2-Y1 (MRAP2 C-terminally fused to the complementary fragment of YFP) (human) (UniProt Q96G30); assay: split reporter; BiFC with split YFP (Y1 and Y2) in live CHO-K1 cells; 1 hr at room temperature before imaging; fluorescence microscopy; single fusion proteins alone gave no fluorescence
T2 sequence: T1 sequence (chain, detected as a non-glycosylated and a glycosylated form (PNGase F sensitive))

[3] = target: 2HA-PKR1 (prokineticin receptor 1 with N-terminal 2HA tag) (human) (UniProt Q8TCW9); assay: co-IP; cells co-transfected with 2HA-receptor and MRAP2-3Flag; lysed in 0.1% n-dodecyl-β-maltoside in PBS with protease inhibitors; IP with mouse anti-HA or mouse anti-Flag M2 overnight at 4°C, protein-G Dynabeads; western blot with rabbit anti-HA or anti-Flag; control: beads only
[4] = target: 2HA-PKR2 (prokineticin receptor 2 with N-terminal 2HA tag) (human) (UniProt Q8NFJ6); assay: as above

binding [1]: binds
Molecule: 2HA-PKR1 (prokineticin receptor 1 with N-terminal 2HA tag) (from UniProt Q8TCW9 1-393)

binding [1]: binds
Molecule: 2HA-PKR2 (prokineticin receptor 2 with N-terminal 2HA tag) (from UniProt Q8NFJ6 1-384)

binding [2]: binds
Molecule: PKR1-Y2 (PKR1 C-terminally fused to a fragment of YFP) (from UniProt Q8TCW9 1-393) (receptor)

binding [2]: binds
Molecule: PKR2-Y2 (PKR2 fused to a fragment of YFP) (from UniProt Q8NFJ6 1-384) (receptor)

binding [3]: binds
binding [4]: binds
B1: MRAP2-3Flag (Melanocortin Receptor Accessory Protein 2 with 3Flag tag) (protein, UniProt Q96G30 1-205)
chain: T1 sequence (chain, detected as a non-glycosylated and a glycosylated form (PNGase F sensitive))
modifications: detected as a non-glycosylated and a glycosylated form (PNGase F sensitive)
